Where “and” joins values, the source holds several entries; their conditions need not be identical. Identical values can stand only once. Inconclusive means that the source gave no clear call. Such entries were picked first, then a sample of the others. For some assays here: Where the call is inconclusive, the potency comes from a doubtful curve fit. More than one record can exist for a structure, and the calls need not agree. Calls of active or inactive are those of the source. Rule for the calls: active = hit-call score of the fitted dose curve at least 0.9, where 1 is the maximum; inconclusive = response in the unintended direction; inactive = score below 0.9.
What was measured:
[1] = molecular target: Bile acid receptor (Homo sapiens) (UniProt Q96RI1); assay: OT_FXR_FXRSRC1_1440: Odyssey Thera (OT) 24-hour HEK293T Protein-Complementation Assay for Farnesoid X receptor/SRC-1 Co-activator (AID 2283384)
Procedure, shortened: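 Single endpoint, analysed for increased fluorescence against DMSO controls. HEK293T cells carrying FXR and SRC-1 linked to complementary reporter halves were exposed to chemicals for 24 h before reading.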

By UniProt entry, the sequences of proteins in these tests, tags left out. Where a name states a change or a piece, a line headed by the entry shows the natural chain unless it says otherwise.
UniProt Q96RI1: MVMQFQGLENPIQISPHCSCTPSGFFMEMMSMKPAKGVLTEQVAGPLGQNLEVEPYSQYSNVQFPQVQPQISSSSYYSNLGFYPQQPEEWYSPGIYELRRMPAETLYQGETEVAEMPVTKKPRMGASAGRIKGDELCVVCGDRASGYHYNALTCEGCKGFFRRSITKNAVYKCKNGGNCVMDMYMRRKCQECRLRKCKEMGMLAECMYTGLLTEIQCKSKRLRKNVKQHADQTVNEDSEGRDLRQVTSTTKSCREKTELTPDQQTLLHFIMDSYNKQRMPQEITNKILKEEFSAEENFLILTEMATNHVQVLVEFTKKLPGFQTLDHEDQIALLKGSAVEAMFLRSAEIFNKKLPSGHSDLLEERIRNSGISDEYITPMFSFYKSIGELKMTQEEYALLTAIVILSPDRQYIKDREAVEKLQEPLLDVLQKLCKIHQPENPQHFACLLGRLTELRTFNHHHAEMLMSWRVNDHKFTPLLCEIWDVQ
UniProt P11712, whole entry, looked up: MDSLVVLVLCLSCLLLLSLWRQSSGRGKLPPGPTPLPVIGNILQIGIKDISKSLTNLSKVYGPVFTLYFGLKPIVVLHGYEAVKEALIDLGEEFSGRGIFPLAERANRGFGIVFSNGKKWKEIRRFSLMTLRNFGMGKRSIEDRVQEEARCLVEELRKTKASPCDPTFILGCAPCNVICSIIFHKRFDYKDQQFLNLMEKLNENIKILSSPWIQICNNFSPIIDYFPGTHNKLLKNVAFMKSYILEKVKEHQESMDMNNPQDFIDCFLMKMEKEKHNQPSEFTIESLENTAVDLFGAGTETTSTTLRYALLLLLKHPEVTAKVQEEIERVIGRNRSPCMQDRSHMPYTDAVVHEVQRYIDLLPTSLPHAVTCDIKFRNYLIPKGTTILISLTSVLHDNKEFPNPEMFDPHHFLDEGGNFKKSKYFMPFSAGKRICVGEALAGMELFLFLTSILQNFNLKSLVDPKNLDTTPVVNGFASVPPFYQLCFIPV
UniProt P04406: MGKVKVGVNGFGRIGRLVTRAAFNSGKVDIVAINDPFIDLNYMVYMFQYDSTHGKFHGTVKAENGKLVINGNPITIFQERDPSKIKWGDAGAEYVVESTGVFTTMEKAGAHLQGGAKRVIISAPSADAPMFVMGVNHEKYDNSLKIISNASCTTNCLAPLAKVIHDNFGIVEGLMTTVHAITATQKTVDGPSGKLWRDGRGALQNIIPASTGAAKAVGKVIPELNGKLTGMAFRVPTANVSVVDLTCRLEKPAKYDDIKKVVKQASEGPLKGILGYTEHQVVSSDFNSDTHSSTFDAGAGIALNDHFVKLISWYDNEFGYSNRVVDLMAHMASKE
UniProt Q9UNQ0: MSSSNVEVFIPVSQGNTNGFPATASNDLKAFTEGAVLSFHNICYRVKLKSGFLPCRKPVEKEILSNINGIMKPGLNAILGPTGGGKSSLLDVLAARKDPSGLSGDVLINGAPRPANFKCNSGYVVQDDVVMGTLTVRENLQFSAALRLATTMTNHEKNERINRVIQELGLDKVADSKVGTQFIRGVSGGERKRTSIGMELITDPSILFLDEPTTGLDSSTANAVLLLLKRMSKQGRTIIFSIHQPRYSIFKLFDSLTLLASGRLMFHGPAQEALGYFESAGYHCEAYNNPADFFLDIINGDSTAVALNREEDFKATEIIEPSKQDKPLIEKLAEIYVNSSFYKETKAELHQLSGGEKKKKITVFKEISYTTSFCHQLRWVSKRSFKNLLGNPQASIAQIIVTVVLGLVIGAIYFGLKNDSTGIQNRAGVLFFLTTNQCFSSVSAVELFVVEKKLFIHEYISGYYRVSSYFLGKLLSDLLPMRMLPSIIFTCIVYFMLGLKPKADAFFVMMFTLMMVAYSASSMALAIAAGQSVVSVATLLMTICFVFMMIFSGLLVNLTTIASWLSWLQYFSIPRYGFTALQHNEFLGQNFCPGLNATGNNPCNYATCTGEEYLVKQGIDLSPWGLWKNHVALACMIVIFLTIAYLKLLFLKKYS
UniProt P60484: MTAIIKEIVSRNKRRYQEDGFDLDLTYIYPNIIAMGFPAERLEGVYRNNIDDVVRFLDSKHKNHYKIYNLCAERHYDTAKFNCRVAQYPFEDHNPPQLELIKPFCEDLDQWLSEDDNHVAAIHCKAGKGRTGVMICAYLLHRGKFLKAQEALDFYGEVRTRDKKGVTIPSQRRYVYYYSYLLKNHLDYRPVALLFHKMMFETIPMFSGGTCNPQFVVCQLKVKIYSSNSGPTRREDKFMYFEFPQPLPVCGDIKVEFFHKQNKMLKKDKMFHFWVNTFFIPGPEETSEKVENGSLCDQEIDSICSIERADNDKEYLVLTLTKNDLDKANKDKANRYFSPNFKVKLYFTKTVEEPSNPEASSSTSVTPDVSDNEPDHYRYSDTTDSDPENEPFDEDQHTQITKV
UniProt P62508: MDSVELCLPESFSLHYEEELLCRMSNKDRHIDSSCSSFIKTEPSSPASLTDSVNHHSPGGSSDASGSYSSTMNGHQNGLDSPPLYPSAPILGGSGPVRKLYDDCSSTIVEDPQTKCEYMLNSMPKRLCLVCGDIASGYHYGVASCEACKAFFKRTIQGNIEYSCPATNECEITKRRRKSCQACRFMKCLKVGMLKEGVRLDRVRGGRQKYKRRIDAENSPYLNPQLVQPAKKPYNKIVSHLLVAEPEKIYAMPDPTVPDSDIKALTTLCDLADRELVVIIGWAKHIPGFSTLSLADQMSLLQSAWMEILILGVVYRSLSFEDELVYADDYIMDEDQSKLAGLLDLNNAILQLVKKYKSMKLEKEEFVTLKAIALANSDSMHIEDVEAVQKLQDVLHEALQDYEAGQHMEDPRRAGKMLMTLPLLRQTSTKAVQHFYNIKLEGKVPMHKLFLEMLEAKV
UniProt P33261, whole entry, looked up: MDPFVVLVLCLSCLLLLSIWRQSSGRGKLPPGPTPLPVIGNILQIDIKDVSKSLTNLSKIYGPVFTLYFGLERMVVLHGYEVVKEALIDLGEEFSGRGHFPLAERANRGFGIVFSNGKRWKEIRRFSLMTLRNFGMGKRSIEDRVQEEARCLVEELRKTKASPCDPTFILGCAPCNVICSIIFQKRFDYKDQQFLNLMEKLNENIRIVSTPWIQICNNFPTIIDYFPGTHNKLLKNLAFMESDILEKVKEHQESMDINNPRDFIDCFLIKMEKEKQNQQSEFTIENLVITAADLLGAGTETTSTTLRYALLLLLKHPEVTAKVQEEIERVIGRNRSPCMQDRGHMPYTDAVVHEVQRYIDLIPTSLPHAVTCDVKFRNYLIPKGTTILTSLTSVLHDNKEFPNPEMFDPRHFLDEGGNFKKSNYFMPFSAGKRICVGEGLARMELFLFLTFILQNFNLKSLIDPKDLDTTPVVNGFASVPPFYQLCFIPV

[2] = ATG_XTT_Cytotoxicity: Cytotoxicity Assessment in the Attagene TRANS-FACTORIAL HepG2 Assay (AID 2283584);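 note: XTT signal for cell number as viability in transfected HepG2 cells; active means loss of viability signal versus DMSO baseline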
Procedure, shortened: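 HepG2 cells transiently transfected with GAL4-UAS multiple reporter units, dosed 24 h; cytotoxicity read by XTT as loss of signal versus DMSO baseline.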

[3] = Tanguay_ZF_120hpf_PIG_legacy: (Legacy) Oregon State University Tanguay Lab 120 Hour Post-fertilization zebrafish Assay for Pigmentation Malformation (AID 2283650);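 note: dechorionated Tropical 5D zebrafish embryos exposed singly from 6 to 120 hpf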
Procedure, shortened: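 Brightfield scoring of pigmentation malformation at 120 hpf, recorded as binary present/absent per larva. Exposure: dechorionated 5D wild-type embryos, one per well, static from 6 hpf at 28C, final DMSO 0.64% (vol/vol). Dead embryos not scored.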

[4] = Tanguay_ZF_120hpf_NC_legacy: (Legacy) Oregon State University Tanguay Lab 120 Hour Post-fertilization zebrafish Assay for Notochord and Tail Malformation (AID 2283656)
Procedure, shortened: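 Binary notochord-distortion calls, made by brightfield inspection, form the read-out; activity is fitted in the positive direction against DMSO. Exposure ran statically from 6 to 120 hpf at 28C with 0.64% DMSO.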

[5] = CLD_ACTIN_24hr: CellzDirect (CLD) Gene Expression Assay for Baseline Control (Actin) at 24 hours (AID 2283670)
Procedure, shortened: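 This 24 h qNPA (S1 nuclease protection, chemiluminescence) actin transcript readout in cultured human liver primary cells serves as baseline control. Signal is fitted upward relative to 0.2% DMSO; chemicals tested at multiple concentrations across two donor preparations.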

[6] = read-out: HMG-CoA synthase (HMGCS2), HMGCS2 (gene 3158); assay: CLD_HMGCS2_6hr: CellzDirect (CLD) Gene Expression Assay for HMG-CoA synthase (HMGCS2) at 6 hours (AID 2283682);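 note: actives raise HMGCS2 transcript above the 0.2% DMSO vehicle baseline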
Procedure, shortened: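 HMGCS2 transcript induction read by quantitative nuclease protection with chemiluminescence, 6 h after dosing of primary human hepatocytes. Baseline was 0.2% DMSO vehicle; phase-contrast morphology gave a yes/no cytotoxicity annotation.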

[7] = read-out: Cytochrome P450 2C9 (Homo sapiens) (UniProt P11712); assay: CLD_CYP2C9_24hr: CellzDirect (CLD) Gene Expression Assay for xenobiotic metabolism (CYP2C9) at 24 hours (AID 2283688);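 note: potency for induction meaning a rise in CYP2C9 mRNA over DMSO vehicle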
Procedure, shortened: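 Induction of CYP2C9 mRNA was quantified by quantitative nuclease protection assay (chemiluminescence), gain of signal versus 0.2% DMSO vehicle, 24 h after dosing. Human primary hepatocytes (two donors) received fresh chemical daily at multiple concentrations; morphology-based cytotoxicity flagged yes/no.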

[8] = read-out: Glyceraldehyde-3-phosphate dehydrogenase (Homo sapiens) (UniProt P04406); assay: CLD_GAPDH_24hr: CellzDirect (CLD) Gene Expression Assay for Baseline Control (Glyceraldehyde 3-phosphate dehydrogenase) at 24 hours (AID 2283692)
Procedure, shortened: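 GAPDH baseline-control readout: qNPA chemiluminescent mRNA signal in human primary hepatocytes harvested 24 h after daily dosing, normalised to 0.2% DMSO with positive fitting direction; cytotoxicity annotated by phase-contrast morphology.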

[9] = read-out: ABC Transporter (ABCB11), ABCB11 (gene 8647); assay: CLD_ABCB11_48hr: CellzDirect (CLD) Gene Expression Assay for ABC Transporter (ABCB11) at 48 hours (AID 2283697)
Procedure, shortened: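 Induction of ABCB11 mRNA relative to 0.2% DMSO, measured at 48 h by qNPA chemiluminescence. Cultured human hepatocytes (two donors) received fresh dosing solutions at several concentrations on two consecutive days.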

[10] = read-out: Broad substrate specificity ATP-binding cassette transporter ABCG2 (Homo sapiens) (UniProt Q9UNQ0); assay: CLD_ABCG2_48hr: CellzDirect (CLD) Gene Expression Assay for ABC Transporter (ABCG2) at 48 hours (AID 2283704)
Procedure, shortened: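 ABCG2 transcript measured at 48 h by quantitative nuclease protection (chemiluminescent) and fitted for increase relative to 0.2% DMSO. Hepatocyte cultures from separate donors got fresh compound daily over two days; morphology annotated cytotoxicity.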

[11] = read-out: HMG-CoA synthase (HMGCS2), HMGCS2 (gene 3158); assay: CLD_HMGCS2_48hr: CellzDirect (CLD) Gene Expression Assay for HMG-CoA synthase (HMGCS2) at 48 hours (AID 2283711)
Procedure, shortened: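 mRNA induction read by qNPA chemiluminescence, 48 h after dosing. Cultured primary human liver cells (two donor preparations) received fresh compound daily over two days against 0.2% DMSO vehicle; morphology-based cytotoxicity noted alongside.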

[12] = molecular target: human Phosphatase and Tensin Homolog (PTEN), PTEN (gene 5728) (UniProt P60484); assay: NVS_ENZ_hPTEN: NovaScreen (NVS) Enzymatic Assay for human Phosphatase and Tensin Homolog (PTEN) (AID 2283203)
Procedure, shortened: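 Loss of fluorescent product signal after mobility-shift separation reports PTEN activity, recombinant human enzyme, 1 h after compound addition. Single 25 uM duplicate screen, then concentration-response on actives; DMSO baseline.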

[13] = molecular target: Estrogen-related receptor gamma (Homo sapiens) (UniProt P62508); assay: ATG_ERRg_TRANS: Attagene TRANS-FACTORIAL HepG2 Assay for human Estrogen-Related Receptor gamma (ERRg) (AID 2282977); conditions: HepG2 Attagene TRANS reporter, ERRg transactivation;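 note: hits increase reporter signal over DMSO so potencies reflect activators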
Procedure, shortened: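 Exogenous NR-Gal4 chimera activity was assessed in HepG2 cells bearing transfected GAL4-UAS reporters. After 24 h dosing, total RNA underwent RT-PCR, fluorescent primer extension and HpaI digestion before capillary electrophoresis, with gain of signal scored against DMSO.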

[14] = read-out: organic anion transporter (SLCO1B1), SLCO1B1 (gene 10599); assay: CLD_SLCO1B1_6hr: CellzDirect (CLD) Gene Expression Assay for organic anion transporter (SLCO1B1) at 6 hours (AID 2283668);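 note: active means mRNA induction above DMSO baseline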
Procedure, shortened: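 SLCO1B1 mRNA induction measured 6 h after dosing by quantitative nuclease protection with chemiluminescent read-out, in human primary hepatocyte cultures given chemicals at several concentrations (vehicle 0.2% DMSO). Increase over DMSO baseline fitted; morphology-based cytotoxicity annotated yes/no.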

[15] = read-out: Glyceraldehyde-3-phosphate dehydrogenase (Homo sapiens) (UniProt P04406); assay: CLD_GAPDH_6hr: CellzDirect (CLD) Gene Expression Assay for Baseline Control (Glyceraldehyde 3-phosphate dehydrogenase) at 6 hours (AID 2283681)
Procedure, shortened: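 GAPDH baseline-control readout from qNPA (S1 nuclease digestion, probe hybridization, chemiluminescence) in lysates of cultured human hepatocytes harvested 6 h post-dosing. Chemicals tested at multiple concentrations versus 0.2% DMSO vehicle; microscopy-based cytotoxicity flagged yes/no.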

[16] = read-out: Cytochrome P450 2C19 (Homo sapiens) (UniProt P33261); assay: CLD_CYP2C19_48hr: CellzDirect (CLD) Gene Expression Assay for xenobiotic metabolism (CYP2C19) at 48 hours (AID 2283700)
Procedure, shortened: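 CYP2C19 mRNA induction read by chemiluminescent quantitative nuclease protection assay after 48 h, with fresh compound added daily for two days to cultured human liver hepatocytes. Activity fitted upward against 0.2% DMSO vehicle.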

[17] = read-out: Glyceraldehyde-3-phosphate dehydrogenase (Homo sapiens) (UniProt P04406); assay: CLD_GAPDH_48hr: CellzDirect (CLD) Gene Expression Assay for Baseline Control (Glyceraldehyde 3-phosphate dehydrogenase) at 48 hours (AID 2283706)
Procedure, shortened: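 GAPDH baseline-control readout: qNPA chemiluminescent mRNA quantitation in human liver primary cells 48 h after daily dosing on two consecutive days, vehicle 0.2% DMSO; gain of signal fitted against DMSO, cytotoxicity flagged by phase-contrast morphology.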

[18] = read-out: organic anion transporter (SLCO1B1), SLCO1B1 (gene 10599); assay: CLD_SLCO1B1_48hr: CellzDirect (CLD) Gene Expression Assay for organic anion transporter (SLCO1B1) at 48 hours (AID 2283707)
Procedure, shortened: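 SLCO1B1 transcript quantified by qNPA with chemiluminescent readout after 48 h of once-daily chemical exposure. Cultured human primary hepatocytes came from two donors, with 0.2% DMSO vehicle; positive-direction fitting against DMSO, cytotoxicity flagged by morphology.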

[19] = ACEA_AR_antagonist_AUC_viability: ACEA Biosciences xCELLigence Real-Time Cell Analysis on Androgen Receptor Antagonism for Viability (AID 2283776);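 note: 22Rv1 human prostate cancer cells growing on impedance electrode plates; area under impedance growth curve at 80 h after dosing as viability; hits lower the growth signal relative to DMSO meaning cytotoxicity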
Procedure, shortened: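 22Rv1 prostate cells, continuous dosing up to 100 uM final (0.5% DMSO max), duplicate plates. Growth measured by impedance; AUC at 80 h, loss of signal vs DMSO.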

[20] = CCTE_Deisenroth_AIME_384WELL_CTox_Inactive: Cytotoxicity Assessment (CTOX) in CCTE's 384-well Estrogen Receptor Transactivation Assay without AIME metabolic competence (metabolism negative), Deisenroth Lab (AID 2284039);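 note: cell viability via live-cell protease substrate cleaved to fluorescent probe; cells exposed 24 h to medium preincubated 2 h with alginate-water beads without S9; loss of fluorescence signal means loss of viability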
Procedure, shortened: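 Metabolism-negative arm: chemicals (10-point, 0.002 - 200 uM) preincubated 2 h with alginate-water lids, medium moved onto VM7Luc4E2 cells for 24 h. Fluorescent live-cell protease readout; bidirectional curve fit.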

For `CC(C)(C)CC(C)(C)c1ccc(O)cc1`, the AC50 [1] was inconclusive: 89.6 µM and inconclusive: 87.8 µM and inconclusive: 92.7 µM, the AC50 [2] was active: 26.7 µM and active: 58.4 µM and active: 53.9 µM and the AC50 [3] was inconclusive: 7 µM.

In the case of `S=C1NCCN1`, the outcome [4] is reported as “inactive”, the outcome [5] is reported as “inactive” and the AC50 [6] is reported as inconclusive: 20 µM. For the same molecule, the AC50 [7] was inconclusive: 0.0025 µM, the outcome [8] was “inactive” and the AC50 [9] was inconclusive: 20 µM. For the same molecule, the outcome [10] was “inactive” and the AC50 [11] was inconclusive: 0.12 µM.

With `CCCCCCCCCCCCOS(=O)(=O)O` the AC50 [12] was active: 21.6 µM.

In the case of `OC(Cc1ccccc1Cl)(Cn1cncn1)C1(Cl)CC1` (centres undefined), the outcome [13] is reported as “inactive” and the AC50 [12] is reported as inconclusive: 0.479 µM.

In the case of `Nc1ccc(Cl)cc1C(=O)c1ccccc1`, the AC50 [13] is reported as inconclusive: 179 µM and the AC50 [12] is reported as inconclusive: 0.334 µM.

For `FC(F)C(F)(F)OCC(Cn1cncn1)c1ccc(Cl)cc1Cl` (centres undefined), the AC50 [1] was inconclusive: 91.9 µM, the AC50 [3] was active: 49.6 µM and the AC50 [14] was inconclusive: 33.2 µM. The outcome [5] was “inactive”, the AC50 [15] was inconclusive: 20 µM and the AC50 [6] was inconclusive: 20 µM. The AC50 [7] was inconclusive: 20 µM, the AC50 [8] was inconclusive: 20 µM and the AC50 [9] was inconclusive: 10.3 µM. For the same molecule, the AC50 [16] was inconclusive: 11.3 µM, the AC50 [17] was inconclusive: 10.7 µM and the AC50 [18] was inconclusive: 12.1 µM. For the same molecule, the AC50 [11] was inconclusive: 29.4 µM.

With `c1ccc(-c2ccccc2)cc1` the AC50 [1] was inconclusive: 2.08 µM, the AC50 [2] was inconclusive: 88.5 nM and the outcome [3] was “inactive”. The AC50 [4] was inconclusive: 3.91 µM.

With `C=CCN(CC=C)C(=O)C(Cl)Cl` the AC50 [19] was inconclusive: 0.328 µM.

In the case of `Oc1cc(Cl)c(Cl)cc1Cl`, the outcome [20] is reported as “inactive”.

For `CCNC(=O)NC(=O)C(C#N)=NOC`, the outcome [13] was “inactive”, the AC50 [3] was inconclusive: 30.6 µM and the AC50 [5] was inconclusive: 20 µM. The outcome [8] was “inactive”, the outcome [9] was “inactive” and the outcome [10] was “inactive”. The AC50 [17] was inconclusive: 0.422 µM, the AC50 [18] was inconclusive: 20 µM and the AC50 [11] was inconclusive: 0.0004 µM.

Source: PubChem BioAssay (EPA / NIEHS)
